The list shows a part of the results. Part of the spread comes from offsets between plates or batches.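 Hits were defined as a z-score below −3.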
Target: T1, YTHDF1 YTH domain (aa 365-554) (UniProt Q9BYJ9)
T1 sequence (whole entry): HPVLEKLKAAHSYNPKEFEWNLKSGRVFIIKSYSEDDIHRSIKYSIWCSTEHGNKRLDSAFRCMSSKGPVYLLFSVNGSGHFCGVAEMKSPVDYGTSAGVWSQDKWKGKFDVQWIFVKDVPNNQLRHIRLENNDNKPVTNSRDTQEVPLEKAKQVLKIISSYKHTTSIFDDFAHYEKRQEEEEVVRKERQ
Experiment: tryptophan fluorescence intensity z-score (mean); higher = higher fluorescence, less quenching (negative = binding / quenching)
Conditions: 10 µM

Tryptophan fluorescence intensity z-score, inactive:
CC(C)=CCC/C(C)=C/CC/C(C)=C/CC/C(C)=C/CC/C(C)=C/CC/C(C)=C/CC/C(C)=C/CC/C(C)=C/CC/C(C)=C/CO (plate: M 19-20) 0.539, CCOC(=O)CCCCCCCCCCCCC1C=CCC1 (configuration not stated) (plate: M 23-24) 0.5, O=C(O)C(S)C(S)C(=O)O (configuration not stated) (plate: M 23-24) 0.181, CCn1nc(C(=O)O)c(=O)c2cc3c(cc21)OCO3 (plate: M 1-2) 0.114, Cc1cc(/C=C/c2ccc3cc(N(C)C)ccc3[n+]2C)c(C)n1-c1ccccc1 (plate: M 5-6) -0.575, O=c1c(-c2ccc(O)cc2)coc2c([C@@H]3O[C@H](CO)[C@@H](O)[C@H](O)[C@H]3O)c(O)ccc12 (plate: M 23-24) 0.501, C[C@H]1CC2C3CCC4=CC(=O)C=C[C@]4(C)[C@@]3(F)[C@@H](O)C[C@]2(C)[C@@]1(O)C(=O)COP(=O)(O)O (some centres not stated) (plate: M 11-12) -0.146, C[C@@H]1O[C@@H](O[C@H]2[C@H](O[C@H]3CC[C@@]4(C)[C@@H](CC[C@]5(C)[C@@H]4CC=C4[C@@H]6CC(C)(C)CC[C@]6(C(=O)O[C@@H]6O[C@H](CO[C@@H]7O[C@H](CO)[C@@H](O[C@@H]8O[C@@H](C)[C@H](O)[C@@H](O)[C@H]8O)[C@H](O)[C@H]7O)[C@@H](O)[C@H](O)[C@H]6O)CC[C@]45C)[C@]3(C)CO)OC[C@H](O)[C@@H]2O)[C@H](O)[C@H](O)[C@H]1O (plate: M 19-20) -0.0879, O=C(O[C@@H]1Cc2c(O)cc(O)cc2O[C@@H]1c1cc(O)c(=O)c2c(O)c(O)cc([C@H]3Oc4cc(O)cc(O)c4C[C@H]3O)c2c1)c1cc(O)c(O)c(O)c1 (plate: M 15-16) -0.779, COC(=O)CC[C@@H](C)[C@H]1CC[C@H]2[C@@H]3CC[C@@H]4C[C@H](O)CC[C@]4(C)[C@H]3C[C@H](O)[C@]12C (plate: M 15-16) -0.843, CC(C)C1=CC2=CC[C@@H]3[C@](C)(CCC[C@@]3(C)C(=O)O)[C@H]2CC1 (plate: M 19-20) 0.364, C[C@H]1C[C@H]2[C@@H]3CCC4=CC(=O)C=C[C@]4(C)[C@@]3(F)[C@@H](O)C[C@]2(C)[C@@]1(O)C(=O)CO (plate: M 1-2) 0.483, C[C@@H]1O[C@@H](OC[C@H]2OC(Oc3c(-c4ccc(O)c(O)c4)oc4cc(O)cc(O)c4c3=O)[C@H](O)[C@@H](O)[C@@H]2O)[C@H](O)[C@H](O)[C@H]1O (some centres not stated) [RUTOSIDE(rutin)] (plate: M 1-2) 0.816, CO[C@@]12[C@H](COC(N)=O)C3=C(C(=O)C(C)=C(N)C3=O)N1C[C@@H]1N[C@@H]12 (plate: M 1-2) 0.378, CC(C(=O)O)c1ccc(N2Cc3ccccc3C2=O)cc1 (configuration not stated) (plate: M 3-4) 0.159, Cc1ccc(Cl)c(Nc2ccccc2C(=O)O)c1Cl (plate: M 3-4) -0.145, CCN1CCN(C(=O)N[C@@H](C(=O)N[C@@H]2C(=O)N3C(C(=O)O)=C(CSc4nnnn4C)CS[C@H]23)c2ccc(O)cc2)C(=O)C1=O (plate: M 7-8) 0.0156, CC1CC(OC(=O)C(O)c2ccccc2)CC(C)(C)N1C (configuration not stated) (plate: M 13-14) 0.387, OC[C@H]1O[C@@H](n2cnc3c(NCc4ccco4)ncnc32)[C@H](O)[C@@H]1O (plate: M 17-18) 0.256, C1CCN2C[C@@H]3C[C@@H](CN4CCCC[C@@H]34)[C@H]2C1 (plate: M 1-2) 0.719, COc1cc(NS(C)(=O)=O)ccc1Nc1c2ccccc2nc2ccccc12 (plate: M 7-8) -0.898, CCN1CCN(c2cc3c(cc2F)c(=O)c(C(=O)O)cn3C2CC2)CC1 (plate: M 9-10) -0.438, Cc1nnc(NS(=O)(=O)c2ccc(N)cc2)s1 (plate: M 5-6) -0.423, CC1(O)CC2C(CC1O)C2(C)C (configuration not stated) (plate: M 19-20) 0.467, C[C@@H]1C[C@H]2[C@@H]3CCC4=CC(=O)C=C[C@]4(C)[C@@]3(F)[C@@H](O)C[C@]2(C)[C@@]1(O)C(=O)CO (plate: M 1-2) 0.0204, OC1(c2ccc(Cl)c(C(F)(F)F)c2)CCN(CCCC(c2ccc(F)cc2)c2ccc(F)cc2)CC1 (plate: M 11-12) -0.656, NC1=NCCN1CC(=O)O (plate: M 21-22) 0.233, CC1(C)O[C@@H]2C[C@H]3[C@@H]4CCC5=CC(=O)C=C[C@]5(C)[C@@]4(F)[C@@H](O)C[C@]3(C)[C@]2(C(=O)CO)O1 (plate: M 5-6) -0.263, O=C(O)CCCc1ccccc1 (plate: M 23-24) 0.422, COc1ccc2cc(C(C)C(=O)O)ccc2c1 (configuration not stated) (plate: M 3-4) 0.103, C[C@H](CCC(=O)O)[C@H]1CC[C@H]2[C@@H]3CC[C@@H]4C[C@H](O)CC[C@]4(C)[C@H]3C[C@H](O)[C@]12C (plate: M 13-14) 0.165, CC(C)C[C@@H]1NC(=O)[C@H](CCCN)NC(=O)[C@H](C(C)C)NC(=O)[C@H](Cc2ccc(O)cc2)N[C@@H](CCC(=O)O)C(=O)N[C@@H](CC(N)=O)C(=O)[C@@H](Cc2ccccc2)NC(=O)[C@H](Cc2ccccc2)NC(=O)[C@@H]2CCCN2C(=O)[C@@H](Cc2ccccc2)NC1=O (plate: M 5-6) -0.35, CC12CCC(CC1)C(C)(C)O2 (plate: M 21-22) 0.244, COC(=O)CC[C@@H](C)[C@H]1CC[C@H]2[C@@H]3[C@H](O)C[C@@H]4C[C@H](O)CC[C@]4(C)[C@H]3C[C@H](O)[C@]12C (plate: M 17-18) -1.12, COc1c(O)cccc1O (plate: M 15-16) 0.458, O=C(O)C1=CCCNC1 (plate: M 21-22) 0.427, Cc1cc(CC(=O)O)n(C)c1C(=O)c1ccc(Cl)cc1 (plate: M 5-6) -0.381, CCCCCCCCCCCCCCCC(=O)O[C@@H]1[C@@H](O)[C@@H](O)[C@@H]([C@H](NC(=O)[C@@H]2C[C@@H](CCC)CN2C)[C@H](C)Cl)O[C@@H]1SC (plate: M 13-14) 0.663, CO/N=C(\C(=O)N[C@@H]1C(=O)N2C(C(=O)O)=C(COC(N)=O)CS[C@H]12)c1ccco1 (plate: M 7-8) 0.0892, Nc1ccc(S(=O)(=O)Nc2ccnn2-c2ccccc2)cc1 (plate: M 23-24) 0.27, CC(=O)O[C@@H]1CC2C(C)(C)C(=O)C3OC3[C@]2(C)C2CC[C@@]3(C)[C@H](c4ccoc4)OC(=O)C4OC43[C@@]21C (some centres not stated) (plate: M 13-14) 0.227, CC1Cc2ccccc2N1NC(=O)c1ccc(Cl)c(S(N)(=O)=O)c1 (configuration not stated) (plate: M 3-4) 0.0143, CCC(=O)c1c(O)cc(O)cc1O (plate: M 23-24) -0.106, O=c1cc[nH]c(=S)[nH]1 (plate: M 23-24) 0.178, CCC(C(=O)O)c1ccccc1 (configuration not stated) (plate: M 23-24) 0.524, CC1(C)CC[C@]2(C(=O)O)CC[C@]3(C)C(=CC[C@@H]4[C@@]5(C)CC[C@H](O)[C@@](C)(CO)[C@@H]5CC[C@]43C)[C@@H]2C1 (plate: M 19-20) 0.856, CC[C@H]1OC(=O)[C@H](C)[C@@H](O[C@H]2C[C@@](C)(OC)[C@@H](O)[C@H](C)O2)[C@H](C)[C@@H](O[C@@H]2O[C@H](C)C[C@H](N(C)C)[C@H]2O)[C@](C)(O)C[C@@H](C)[C@@H]2N[C@@H](COCCOC)O[C@H]([C@H]2C)[C@]1(C)O (plate: M 9-10) -0.105, O=C1CC2(CCCC2)CC(=O)N1CCCCN1CCN(c2ncccn2)CC1 (plate: M 11-12) -0.213, CC(C)/C(O)=C1/C(=O)O[C@@H](c2ccoc2)[C@]2(C)C(O)[C@@H](O)[C@@]34OC5(C)OC67CC(C)(C(O)[C@]6(O)[C@@H](O)[C@]3(O5)C12)[C@H](CC(=O)O)[C@]74C (some centres not stated) (plate: M 13-14) -0.00908, CS(=O)(=O)CCCCN=C=S (plate: M 21-22) 0.0317, C[C@H]1C[C@@H]2[C@H]([C@@H](O)C[C@@]3(C)[C@H]2CC[C@]3(O)C(=O)CO)[C@@]2(C)C=CC(=O)C=C12 (plate: M 3-4) 0.142, O=[N+]([O-])c1cccc2cn[nH]c12 (plate: M 23-24) 0.0804, COc1ccccc1OCC(O)CN1CCN(CC(=O)Nc2c(C)cccc2C)CC1 (configuration not stated) (plate: M 11-12) -0.186, O=C(Nc1ccccc1)Nc1ccccc1 (plate: M 15-16) 0.348, COc1cc([C@@H]2c3cc4c(cc3[C@@H](O[C@@H]3O[C@@H]5CO[C@@H](C)O[C@H]5[C@H](O)[C@H]3O)[C@H]3COC(=O)[C@H]23)OCO4)cc(OC)c1O (plate: M 7-8) 0.382, CCCNCC(O)COc1ccccc1C(=O)CCc1ccccc1 (configuration not stated) (plate: M 9-10) -0.405, NC(=O)C(c1ccccc1)(c1ccccc1)[C@@H]1CCN(CCc2ccc3c(c2)CCO3)C1 (plate: M 11-12) 1.04
